Data as given in publication PMC6693564, “RGG-motif self-association regulates eIF4G-binding translation repressor protein Scd6” (RNA Biology, 2019).

What was measured:
[1] = target: T1, GSTScd6 (recombinant) (yeast) (UniProt P45978); assay: pull-down; 450 nM purified proteins with glutathione sepharose beads, 2 h at 4°C, 50mM HEPES pH7, 100mM NaCl, 1mM DTT, 2mM MnCl2, 2mM MgCl2, 1% Triton-X100, 10% glycerol, 0.25mg/ml RNase A, 10mg/ml BSA; GST fusion as bait; anti-FLAG blot; for Figure 5e Scd6FLAG first incubated with Hmt1 with or without SAM; both purified
T1 sequence: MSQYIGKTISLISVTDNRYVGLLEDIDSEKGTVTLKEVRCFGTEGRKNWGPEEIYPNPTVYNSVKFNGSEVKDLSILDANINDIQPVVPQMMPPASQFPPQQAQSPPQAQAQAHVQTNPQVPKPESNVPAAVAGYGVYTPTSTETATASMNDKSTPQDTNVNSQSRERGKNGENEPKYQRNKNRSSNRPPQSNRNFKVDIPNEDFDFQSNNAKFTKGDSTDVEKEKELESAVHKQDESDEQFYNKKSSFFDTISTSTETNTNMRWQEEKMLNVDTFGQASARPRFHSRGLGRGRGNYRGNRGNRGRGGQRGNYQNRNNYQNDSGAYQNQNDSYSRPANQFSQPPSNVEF

[2] = target: T2, Sbp1GST (chromosomally encoded) (yeast) (UniProt P10080); assay: pull-down; Glutathione pull-down of chromosomally encoded Sbp1GST from yeast lysate of cells expressing galactose-inducible Sbp1 or Sbp1∆RGG; wild type and ∆HMT1 cells; blot with anti-GST and PAP antibody
T2 sequence: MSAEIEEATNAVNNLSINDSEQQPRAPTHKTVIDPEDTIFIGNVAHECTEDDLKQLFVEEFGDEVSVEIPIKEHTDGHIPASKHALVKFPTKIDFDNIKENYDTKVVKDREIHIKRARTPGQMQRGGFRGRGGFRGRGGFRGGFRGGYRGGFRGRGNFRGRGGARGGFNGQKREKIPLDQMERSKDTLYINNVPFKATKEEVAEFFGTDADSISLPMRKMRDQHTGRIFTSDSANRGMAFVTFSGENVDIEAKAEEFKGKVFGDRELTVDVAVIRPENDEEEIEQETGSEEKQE

[3] = target: T3, HisSbp1FLAG (recombinant) (yeast) (UniProt P10080); assay: pull-down; FLAG pull-down of purified Sbp1FLAG with purified Sbp1GFP or Sbp1GFPΔRGG in the presence of RNase A; 450 nM proteins; blots with anti-GFP and anti-FLAG; both purified
T3 sequence: T2 sequence

[4] = target: GSToRGG (GST tagged only RGG motif of Scd6) (yeast); assay: pull-down; 450 nM purified proteins with glutathione sepharose beads, 2 h at 4°C, 50mM HEPES pH7, 100mM NaCl, 1mM DTT, 2mM MnCl2, 2mM MgCl2, 1% Triton-X100, 10% glycerol, 0.25mg/ml RNase A, 10mg/ml BSA; GST fusion as bait; anti-FLAG blot; for Figure 5e Scd6FLAG first incubated with Hmt1 with or without SAM; both purified

- binding [1]: no binding (tested: 450 nM)
Molecule: Scd6ΔRGGFLAG (recombinant) (yeast) (domain or fragment)

- binding [2]: no binding
Molecule: galactose-inducible Sbp1∆RGG (on plasmid, in yeast) (domain or fragment)

- binding [3]: no binding (tested: 450 nM)
Molecule: Sbp1GFPΔRGG (recombinant) (yeast) (domain or fragment)

- binding [4]: binds
B1: HisScd6FLAG (recombinant) (natural protein, yeast, UniProt P45978 1-349, looked up)
chain: T1 sequence
notes: Scd6, yeast; predicted molecular mass of the purified protein about 41.5 kDa; also called purified Scd6; source: E. coli BL21, purified (HisTrap HP, HiTrap Heparin HP)

No constants are given. Whether binding was seen depends on the method and setting. For some of these results: Binding can be weak; no strength is given. Sequences can lack the tags named with a protein. For some of these results: Binding seen in cells or lysates may run through a third protein. One block for each molecule: values may come before it.
